# Some compounds share one wording; it may come from a single statement.
# Experiment: Evaluation of C/N (carrier-to-noise ratio) of optical information recording medium
# Parameters: key to Recording/reproducing properties (Pit reading before Xe lamp irradiation): Evaluated as “Excellent” when the 2T recording C/N was 35 dB or more; evaluated as “Good” when the ratio was 30 dB or more and less than 35 dB; evaluated as “Poor” when the ratio was less than 30 dB; Impossible: The recording layer could not sufficiently be formed due to poor solubility, resulting in recording failure
# Conditions: 2T recording C/N; 403-nm laser, NA 0.85, recording power 5 mW
row,Compound,Recording/reproducing properties (Pit reading before Xe lamp irradiation)
1,"CCCCn1c(O)c(N=Nc2cc([N+](=O)[O-])ccc2O)c(C)c(C#N)c1=O [Compound (A), reference compound]",Impossible^(3)
2,Cn1nc(C(C)(C)C)c(N=Nc2c(C#N)cnn2-c2cc(C(=O)O)cc(C(=O)O)c2)c1N [Compound (A-1)],Excellent (Evaluated as “Excellent” when the 2T recording C/N was 35 dB or more)
3,Cc1nn2nc(C(C)(C)C)c(/N=N/c3c(C#N)cnn3-c3cc(C(=O)O)cc(C(=O)O)c3)c2n1C [Compound (A-7)],Good (evaluated as “Good” when the ratio was 30 dB or more and less than 35 dB)
4,"CCc1nnc(N=Nc2ccc(N3CCCC3)cc2NS(=O)(=O)C(F)(F)F)s1 [Compound (B), reference compound]",Impossible^(3)
5,"CCCCC(CC)COC(=O)Nc1ccc(-c2nn3nc(C(C)(C)C)c(/N=N/c4c(C#N)cnn4-c4cc(C(=O)O)cc(C(=O)O)c4)c3[nH]2)cc1 (stereo not drawn) [Compound (C), reference compound]",Poor (evaluated as “Poor” when the ratio was less than 30 dB)
6,"Cc1n[nH]c2c(/N=N/c3c(C#N)c(C(C)(C)C)nn3C)c(C(C)(C)C)nn12 [Compound (D), reference compound]",Poor (evaluated as “Poor” when the ratio was less than 30 dB)

# Same assay, conditions: disc made in the same manner as Example 1
row,Compound,use in discs and formation of a recording pit
1,CN(C)C(=O)n1nc(C(C)(C)C)c(C#N)c1N=Nc1c(C(C)(C)C)nn(C)c1N [(A-2)],a recording pit could be formed
2,Cc1nn2nc(C(C)(C)C)c(/N=N/c3c(C#N)c(C(C)(C)C)nn3C)c2n1C [(A-13)],a recording pit could be formed
3,CC(C)c1nn(CC(=O)O)c2c(N=Nc3nnc(C(C)(C)C)s3)c(C(C)(C)C)nn12 [(A-20)],a recording pit could be formed
4,Cn1c(O)c(N=Nc2c(C#N)c(C(C)(C)C)nn2-c2cc(C(=O)O)cc(C(=O)O)c2)c(=O)n(C)c1=O [(A-35)],a recording pit could be formed
5,CC(C)c1nn2nc(C(C)(C)C)c(N=Nc3nnc(C(C)(C)C)s3)c2n1C [(A-49)],a recording pit could be formed
6,CCC(CC)C(=O)n1c(N=Nc2c(C(C)(C)C)nn(C)c2N)nc(C#N)c1C#N [(A-51)],a recording pit could be formed

# — patent US20080081284A1, “OPTICAL INFORMATION RECORDING MEDIUM” (FUJIFILM Corporation, priority 2006, published 2008)
